Results are given in words; binding and its absence hold for the method and conditions named. Binding seen in cells or lysates may run through a third protein.
Biological target: dTFIIIC220 (CG7099), predicted B box binding subunit of Drosophila TFIIIC (D. melanogaster (endogenous in Kc167)) (UniProt Q9VJY7)
Assay: co-IP; Kc167 lysate in PBSMT (2.5 mM MgCl2, 3 mM KCl, 0.3% Triton X-100 in PBS) at 4°C; rabbit polyclonal anti-dTFIIIC220 or pre-immune serum on Protein A Sepharose, 1 h; bound proteins eluted with 1 M MgCl2; western blot

Sequences of proteins named here, by UniProt entry; tags and fusion partners are left off. A change or cut given only in a name is not applied to a line headed by its entry.
UniProt Q9VJY7: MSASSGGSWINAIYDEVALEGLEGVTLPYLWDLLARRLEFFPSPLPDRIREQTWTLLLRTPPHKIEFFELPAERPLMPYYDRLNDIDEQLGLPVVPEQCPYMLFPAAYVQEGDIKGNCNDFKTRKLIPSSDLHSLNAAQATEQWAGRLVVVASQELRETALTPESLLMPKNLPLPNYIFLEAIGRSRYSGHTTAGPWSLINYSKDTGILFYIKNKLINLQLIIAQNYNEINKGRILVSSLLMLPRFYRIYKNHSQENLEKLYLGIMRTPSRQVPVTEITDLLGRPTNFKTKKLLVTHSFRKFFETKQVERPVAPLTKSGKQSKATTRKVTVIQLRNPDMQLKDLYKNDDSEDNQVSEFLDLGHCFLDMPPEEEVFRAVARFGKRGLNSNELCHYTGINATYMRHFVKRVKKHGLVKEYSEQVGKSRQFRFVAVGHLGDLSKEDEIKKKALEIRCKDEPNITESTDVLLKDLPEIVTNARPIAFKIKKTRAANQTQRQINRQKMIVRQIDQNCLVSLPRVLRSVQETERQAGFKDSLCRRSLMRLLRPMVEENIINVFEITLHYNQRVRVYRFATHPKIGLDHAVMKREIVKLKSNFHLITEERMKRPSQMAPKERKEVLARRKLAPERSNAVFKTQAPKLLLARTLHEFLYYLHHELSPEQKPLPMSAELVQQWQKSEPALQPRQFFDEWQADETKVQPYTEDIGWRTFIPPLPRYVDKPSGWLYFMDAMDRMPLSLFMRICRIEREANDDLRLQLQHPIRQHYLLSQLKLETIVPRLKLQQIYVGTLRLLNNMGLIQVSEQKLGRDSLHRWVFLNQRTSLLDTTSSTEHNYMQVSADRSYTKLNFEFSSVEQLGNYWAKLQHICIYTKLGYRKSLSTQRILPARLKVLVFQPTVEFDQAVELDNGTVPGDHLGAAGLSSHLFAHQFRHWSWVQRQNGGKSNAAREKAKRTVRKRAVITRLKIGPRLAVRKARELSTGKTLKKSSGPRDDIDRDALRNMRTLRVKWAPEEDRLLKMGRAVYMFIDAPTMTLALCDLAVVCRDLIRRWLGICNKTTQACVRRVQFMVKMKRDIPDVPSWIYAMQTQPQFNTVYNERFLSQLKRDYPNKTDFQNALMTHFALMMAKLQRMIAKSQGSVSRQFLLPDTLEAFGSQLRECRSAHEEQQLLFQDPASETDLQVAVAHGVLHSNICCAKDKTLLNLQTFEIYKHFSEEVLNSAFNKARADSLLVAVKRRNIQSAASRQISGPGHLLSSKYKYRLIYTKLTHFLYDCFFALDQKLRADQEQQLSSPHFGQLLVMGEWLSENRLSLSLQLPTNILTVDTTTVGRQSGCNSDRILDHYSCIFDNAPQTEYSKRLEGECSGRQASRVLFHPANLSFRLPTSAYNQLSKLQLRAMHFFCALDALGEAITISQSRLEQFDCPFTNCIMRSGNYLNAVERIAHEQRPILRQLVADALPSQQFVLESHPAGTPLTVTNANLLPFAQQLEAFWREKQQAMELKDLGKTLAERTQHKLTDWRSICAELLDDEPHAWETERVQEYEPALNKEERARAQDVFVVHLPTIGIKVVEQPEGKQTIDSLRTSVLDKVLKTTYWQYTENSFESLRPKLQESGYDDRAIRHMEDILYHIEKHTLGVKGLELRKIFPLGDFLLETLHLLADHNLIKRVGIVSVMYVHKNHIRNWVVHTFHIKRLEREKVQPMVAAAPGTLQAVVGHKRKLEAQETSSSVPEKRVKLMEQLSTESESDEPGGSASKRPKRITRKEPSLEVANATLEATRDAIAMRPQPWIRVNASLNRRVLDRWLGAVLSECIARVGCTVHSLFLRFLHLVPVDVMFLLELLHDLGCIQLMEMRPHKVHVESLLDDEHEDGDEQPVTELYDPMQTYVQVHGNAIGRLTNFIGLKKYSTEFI

Binder	binding
Drosophila homolog of CTCF (dCTCF) (protein, UniProt Q9VS55 1-818) MPRRTKKDEDPEDLQTFLNNFHKEIEGNSDEKVVNTILEAISAEAIDLDENGAEAGGSKPMEEAEADLDHAEEAEEEEEDDEDKYFIDDEGNCYIKTTPKKQKELQKKLKQAAAKPGKATRSVVSTATNKSINLRPAKSTPKATTSKPPPEPKAISVRPARAAAAKAKQSAMPPPPALVVKVPAPRGRPRKNPVIPKPEPMDLERELEELVDEPDISSMVTELSDYTVDEAAVEAATATLTPNEAEVYEFEDNATTEDENADKKDVDFVLSNKEVKLKTASSTSQNSNASGHKYSCPHCPYTASKKFLITRHSRSHDVEPSFKCSICERSFRSNVGLQNHINTHMGNKPHKCKLCESAFTTSGELVRHTRYKHTKEKPHKCTECTYASVELTKLRRHMTCHTGERPYQCPHCTYASQDMFKLKRHMVIHTGEKKYQCDICKSRFTQSNSLKAHKLIHSVVDKPVFQCNYCPTTCGRKADLRVHIKHMHTSDVPMTCRRCGQQLPDRYQYKLHVKSHEGEKCYSCKLCSYASVTQRHLASHMLIHLDEKPFHCDQCPQAFRQRQLLRRHMNLVHNEEYQPPEPREKLHKCPSCPREFTHKGNLMRHMETHDDSANAREKRRRLKLGRNVRLQKDGTVITLIKDQYVDMDRDQEENEEDDNPESYDLAEIEPENSEAEDADDDVETIVSDPIRQRIKPAPIIINKQARLAASEKQPMIINQRLRSQRGTKTFHIKEEPDNSDFTVEWQGDDGEVMVVELVNGDEEVLVKHEPSANSKISAKNCFGFEDDDDYEEYGDGENEVDGASQEFLQLMDMIEQDS	no binding
Suppressor of hairy-wing (Su(Hw)) (protein, UniProt P08970 1-941) MSASKEGKEKKGKLLGVENISPPKDKRPATRMKLLNDVGAGEDSEASTTTTTSRTPSNKQEKRGSVAGSRIKILNEEILGTPKTEKRGATKSTAPAASTVKILNEKKTPSATVTAVETTKIKTSPSKRKKMEHYVLQAVKSENTKADTTVTVVTEEDDTIDFILADDEEVVPGRIENNNGQEIVVTEDDEDLGEDGDEDGEDSSGKGNSSQTKIKEIVEHVCGKCYKTFRRVQSLKKHLEFCRYDSGYHLRKADMLKNLEKIEKDAVVMEKKDICFCCSESYDTFHLGHINCPDCPKSFKTQTSYERHIFITHSEFSDFPCSICNANLRSEALLALHEEQHKSRGKPYACKICGKDFTRSYHLKRHQKYSSCSSNETDTMSCKVCDRVFYRLDNLRSHLKQHLGTQVVKKPEYMCHTCKNCFYSLSTLNIHIRTHTGEKPFDCDLCDKKFSALVALKKHRRYHTGEKPYSCTVCNQAFAVKEVLNRHMKRHTGERPHKCDECGKSFIQATQLRTHSKTHIRPFPCEQCDEKFKTEKQLERHVKTHSRTKRPVFSCAECKRNFRTPALLKEHMDEGKHSPKQQRSSMRSAVKIMERTDCAICDKNFDSSDTLRRHIRTVHECDPDDIFGVEPHPSKRAKKDIESEEVVPVALNTSAGSLISSQTDGNGVVVREFLVDEGDGAAQTITLENETYTILPLDGAIEGEQLTDEAGVKPEAKKEEAQVSPVVKKEQRKSLAASLAAAIADNLEESCSEDDFSGEILTEEDIKLKENVGKLIDMLVDPPILKKYGWPNAPEETVLCKVIENCGHDLTKGGENYAELDYGSRMREYCKLLFTVVIHNDSIKSLLNNFPIDDVIEYVLGDEDQDEGGLDKDNESHSGDEEAVSVTGETKTNEIREKPEKKEVSAKSEKKEIVGKAVDKDNSEEVVRENKKKPVGEQEKA	no binding

Reference: PMC4226948
